# In ChEMBL document CHEMBL5674883, “The Heterochromatin Landscape in Migrating Cells and the Importance of H3K27me3 for Associated Transcriptome Alterations” (Cells, 2018):
# By UniProt entry, the sequences of proteins in these tests, tags left out.
# UniProt Q61188, whole entry: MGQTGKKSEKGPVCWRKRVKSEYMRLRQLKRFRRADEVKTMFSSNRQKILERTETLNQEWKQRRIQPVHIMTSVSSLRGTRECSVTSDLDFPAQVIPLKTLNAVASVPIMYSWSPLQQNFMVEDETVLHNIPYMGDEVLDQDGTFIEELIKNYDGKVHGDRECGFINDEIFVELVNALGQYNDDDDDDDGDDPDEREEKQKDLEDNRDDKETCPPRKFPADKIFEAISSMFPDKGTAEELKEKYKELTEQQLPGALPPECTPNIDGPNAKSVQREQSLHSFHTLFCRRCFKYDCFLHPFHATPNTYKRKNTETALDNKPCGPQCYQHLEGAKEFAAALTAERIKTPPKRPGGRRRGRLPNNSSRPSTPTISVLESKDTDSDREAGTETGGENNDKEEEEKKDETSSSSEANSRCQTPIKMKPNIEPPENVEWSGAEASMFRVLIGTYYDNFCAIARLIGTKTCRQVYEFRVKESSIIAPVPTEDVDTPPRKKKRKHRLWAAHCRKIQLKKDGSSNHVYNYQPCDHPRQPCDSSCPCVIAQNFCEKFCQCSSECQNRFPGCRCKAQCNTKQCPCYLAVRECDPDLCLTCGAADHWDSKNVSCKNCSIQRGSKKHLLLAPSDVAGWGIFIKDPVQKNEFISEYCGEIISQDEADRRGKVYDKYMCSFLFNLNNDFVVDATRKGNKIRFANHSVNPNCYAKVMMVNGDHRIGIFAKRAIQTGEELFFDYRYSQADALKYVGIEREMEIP
# Further values from the same series stand in other lists.
# Legend:
# Assay type in all cases: cell-based
# [1] = molecular target: T1, RNA polymerase II (Mus musculus) (UniProt P08775+Q8CFI7+P97760+A0A3Q4L2S8+Q80UW8+P61219+P62488+Q923G2+P60898+O08740+Q63871+P62876); experiment: Inhibition of RNA polymerase II in mouse B16-F1 migrating cells assessed as fold change in Tmem205-RNA stability at 0.1 mM measured by ChIP-seq analysis relative to control cells
# [2] = molecular target: T1, RNA polymerase II (Mus musculus); experiment: Inhibition of RNA polymerase II in mouse B16-F1 migrating cells assessed as fold change in Suz12-RNA stability at 0.1 mM measured by ChIP-seq analysis relative to control cells
# [3] = molecular target: T1, RNA polymerase II (Mus musculus); experiment: Inhibition of RNA polymerase II in mouse B16-F1 migrating cells assessed as fold change in Zfp991-RNA stability at 0.1 mM measured by ChIP-seq analysis relative to control cells
# [4] = molecular target: T1, RNA polymerase II (Mus musculus); experiment: Inhibition of RNA polymerase II in mouse B16-F1 migrating cells assessed as fold change in Eif5b-RNA stability at 0.1 mM measured by ChIP-seq analysis relative to control cells
# [5] = molecular target: T1, RNA polymerase II (Mus musculus); experiment: Inhibition of RNA polymerase II in mouse B16-F1 migrating cells assessed as fold change in Rdm1-RNA stability at 0.1 mM measured by ChIP-seq analysis relative to control cells
# [6] = molecular target: T1, RNA polymerase II (Mus musculus); experiment: Inhibition of RNA polymerase II in mouse B16-F1 migrating cells assessed as fold change in Zbtb41-RNA stability at 0.1 mM measured by ChIP-seq analysis relative to control cells
# [7] = molecular target: T1, RNA polymerase II (Mus musculus); experiment: Inhibition of RNA polymerase II in mouse B16-F1 migrating cells assessed as fold change in Chmp1a-RNA stability at 0.1 mM measured by ChIP-seq analysis relative to control cells
# [8] = molecular target: T1, RNA polymerase II (Mus musculus); experiment: Inhibition of RNA polymerase II in mouse B16-F1 migrating cells assessed as fold change in Prr11-RNA stability at 0.1 mM measured by ChIP-seq analysis relative to control cells
# [9] = molecular target: T1, RNA polymerase II (Mus musculus); experiment: Inhibition of RNA polymerase II in mouse B16-F1 migrating cells assessed as fold change in Itga5-RNA stability at 0.1 mM measured by ChIP-seq analysis relative to control cells
# [10] = molecular target: T1, RNA polymerase II (Mus musculus); experiment: Inhibition of RNA polymerase II in mouse B16-F1 migrating cells assessed as fold change in Stag1-RNA stability at 0.1 mM measured by ChIP-seq analysis relative to control cells
# [11] = molecular target: T1, RNA polymerase II (Mus musculus); experiment: Inhibition of RNA polymerase II in mouse B16-F1 migrating cells assessed as fold change in Picalm-RNA stability at 0.1 mM measured by ChIP-seq analysis relative to control cells
# [12] = molecular target: T1, RNA polymerase II (Mus musculus); experiment: Inhibition of RNA polymerase II in mouse B16-F1 migrating cells assessed as fold change in Fndc3c1-RNA stability at 0.1 mM measured by ChIP-seq analysis relative to control cells
# [13] = molecular target: T1, RNA polymerase II (Mus musculus); experiment: Inhibition of RNA polymerase II in mouse B16-F1 migrating cells assessed as fold change in Rpl41-RNA stability at 0.1 mM measured by ChIP-seq analysis relative to control cells
# [14] = molecular target: T1, RNA polymerase II (Mus musculus); experiment: Inhibition of RNA polymerase II in mouse B16-F1 migrating cells assessed as fold change in Tmem123-RNA stability at 0.1 mM measured by ChIP-seq analysis relative to control cells
# [15] = molecular target: T1, RNA polymerase II (Mus musculus); experiment: Inhibition of RNA polymerase II in mouse B16-F1 migrating cells assessed as fold change in Rrm2b-RNA stability at 0.1 mM measured by ChIP-seq analysis relative to control cells
# [16] = molecular target: T1, RNA polymerase II (Mus musculus); experiment: Inhibition of RNA polymerase II in mouse B16-F1 migrating cells assessed as fold change in Rps16-RNA stability at 0.1 mM measured by ChIP-seq analysis relative to control cells
# [17] = molecular target: T1, RNA polymerase II (Mus musculus); experiment: Inhibition of RNA polymerase II in mouse B16-F1 migrating cells assessed as fold change in Mrpl58-RNA stability at 0.1 mM measured by ChIP-seq analysis relative to control cells
# [18] = molecular target: T1, RNA polymerase II (Mus musculus); experiment: Inhibition of RNA polymerase II in mouse B16-F1 migrating cells assessed as fold change in Ppp3ca-RNA stability at 0.1 mM measured by ChIP-seq analysis relative to control cells
# [19] = molecular target: Histone-lysine N-methyltransferase EZH2 (Mus musculus) (UniProt Q61188); experiment: Inhibition of EZH2 in mouse B16-F1 migrating cells assessed as fold change in H3K27me3-buffered regulated Hoxd13-mRNA expression at 3 uM measured by ChIP-seq analysis relative to control cells
# [20] = molecular target: Histone-lysine N-methyltransferase EZH2 (Mus musculus) (UniProt Q61188); experiment: Inhibition of EZH2 in mouse B16-F1 migrating cells assessed as fold change in H3K27me3-independent regulated Slc2a1-mRNA expression at 3 uM measured by ChIP-seq analysis relative to control cells
# [21] = molecular target: Histone-lysine N-methyltransferase EZH2 (Mus musculus) (UniProt Q61188); experiment: Inhibition of EZH2 in mouse B16-F1 migrating cells assessed as fold change in H3K27me3-buffered regulated Supt20-mRNA expression at 3 uM measured by ChIP-seq analysis relative to control cells
# [22] = molecular target: Histone-lysine N-methyltransferase EZH2 (Mus musculus) (UniProt Q61188); experiment: Inhibition of EZH2 in mouse B16-F1 migrating cells assessed as fold change in H3K27me3-dependent regulated Hes1-mRNA expression at 3 uM measured by ChIP-seq analysis relative to control cells
# [23] = molecular target: Histone-lysine N-methyltransferase EZH2 (Mus musculus) (UniProt Q61188); experiment: Inhibition of EZH2 in mouse B16-F1 migrating cells assessed as fold change in H3K27me3-buffered regulated Acap1-mRNA expression at 3 uM measured by ChIP-seq analysis relative to control cells
# [24] = molecular target: Histone-lysine N-methyltransferase EZH2 (Mus musculus) (UniProt Q61188); experiment: Inhibition of EZH2 in mouse B16-F1 migrating cells assessed as fold change in H3K27me3-dependent regulated Gm15446-mRNA expression at 3 uM measured by ChIP-seq analysis relative to control cells
# [25] = molecular target: Histone-lysine N-methyltransferase EZH2 (Mus musculus) (UniProt Q61188); experiment: Inhibition of EZH2 in mouse B16-F1 migrating cells assessed as fold change in H3K27me3-buffered regulated Usp2-mRNA expression at 3 uM measured by ChIP-seq analysis relative to control cells
# [26] = molecular target: Histone-lysine N-methyltransferase EZH2 (Mus musculus) (UniProt Q61188); experiment: Inhibition of EZH2 in mouse B16-F1 migrating cells assessed as fold change in H3K27me3-dependent regulated Gm47854-mRNA expression at 3 uM measured by ChIP-seq analysis relative to control cells
# [27] = molecular target: Histone-lysine N-methyltransferase EZH2 (Mus musculus) (UniProt Q61188); experiment: Inhibition of EZH2 in mouse B16-F1 migrating cells assessed as fold change in H3K27me3-buffered regulated Trim8-mRNA expression at 3 uM measured by ChIP-seq analysis relative to control cells
# [28] = molecular target: Histone-lysine N-methyltransferase EZH2 (Mus musculus) (UniProt Q61188); experiment: Inhibition of EZH2 in mouse B16-F1 migrating cells assessed as fold change in H3K27me3-buffered regulated Smc4-mRNA expression at 3 uM measured by ChIP-seq analysis relative to control cells
# [29] = molecular target: Histone-lysine N-methyltransferase EZH2 (Mus musculus) (UniProt Q61188); experiment: Inhibition of EZH2 in mouse B16-F1 migrating cells assessed as fold change in H3K27me3-independent regulated Zfp469-mRNA expression at 3 uM measured by ChIP-seq analysis relative to control cells
# [30] = molecular target: Histone-lysine N-methyltransferase EZH2 (Mus musculus) (UniProt Q61188); experiment: Inhibition of EZH2 in mouse B16-F1 migrating cells assessed as fold change in H3K27me3-buffered regulated Phip-mRNA expression at 3 uM measured by ChIP-seq analysis relative to control cells
compound,measurement,setting,value
OC[C@H]1O[C@@H](n2cnc3cc(Cl)c(Cl)cc32)[C@H](O)[C@@H]1O,log2FC,[1],0.7
same,log2FC,[2],-0.6
same,log2FC,[3],-1.21
same,log2FC,[4],-0.57
same,log2FC,[5],0.67
same,log2FC,[6],-0.61
same,log2FC,[7],0.4
same,log2FC,[8],-0.49
same,log2FC,[9],0.51
same,log2FC,[10],-0.58
same,log2FC,[11],-0.54
same,log2FC,[12],-0.85
same,log2FC,[13],0.47
same,log2FC,[14],-0.56
same,log2FC,[15],-0.59
same,log2FC,[16],0.44
same,log2FC,[17],0.46
same,log2FC,[18],-0.57
CCCc1cc(C)[nH]c(=O)c1CNC(=O)c1cc(-c2ccnc(N3CCN(C)CC3)c2)cc2c1cnn2C(C)C,log2FC,[19],-0.4
same,log2FC,[20],-0.55
same,log2FC,[21],-0.4
same,log2FC,[22],0.31
same,log2FC,[23],-1.33
same,log2FC,[24],-0.37
same,log2FC,[25],0.71
same,log2FC,[26],0.41
same,log2FC,[27],-0.53
same,log2FC,[28],-0.54
same,log2FC,[29],0.5
same,log2FC,[30],-0.64
